Results are given in words; binding and its absence hold for the method and conditions named. A result given as binding can be weak or reduced; the word gives no strength.
Molecular target: T1, Biotin-BH4-Bcl-XL
T1 sequence (peptide, biotin on the N-terminus (also used without the biotin tag)): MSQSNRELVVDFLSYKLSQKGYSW
Assay: SPR; Biacore T200; biotin peptides immobilised on different channels of a streptavidin-coated sensor chip; purified GST-fusion proteins flowed over at the indicated concentrations; binding to the scrambled peptide subtracted; both purified

binding: binds
Substance: GST-RyR3 domain (mink RyR3, a.a. 2263-2688) (domain or fragment)
